According to article PMC6158915:
Results are given in words; binding and its absence hold for the method and conditions named. Binding seen in cells or lysates may run through a third protein. A yes stands for co-enrichment or nearness to the bait. Other partners may have been found.

Biological target: Pde6δ-Strep-HA (retinal rod rhodopsin-sensitive cGMP 3',5'-cyclic phosphodiesterase subunit delta) (human) (UniProt O43924)
Test: affinity purification with mass spectrometry; Pde6δ-Strep-HA stably expressed in HEK293 pulled down from protein extracts on Strep-Tactin Sepharose beads; label-free quantitative MS (LTQ Orbitrap XL); control HEK293 cells without bait; vehicle (DMSO) treated cells, also REM treated cells; co-precipitation threshold of 2 (Pde6δ vehicle/control); three biological replicates

binding	Binder
binds	Fbxo10 (protein, UniProt Q9UK96 1-956) MEAGGLPLELWRMILAYLHLPDLGRCSLVCRAWYELILSLDSTRWRQLCLGCTECRHPNWPNQPDVEPESWREAFKQHYLASKTWTKNALDLESSICFSLFRRRRERRTLSVGPGREFDSLGSALAMASLYDRIVLFPGVYEEQGEIILKVPVEIVGQGKLGEVALLASIDQHCSTTRLCNLVFTPAWFSPIMYKTTSGHVQFDNCNFENGHIQVHGPGTCQVKFCTFKNTHIFLHNVPLCVLENCEFVGSENNSVTVEGHPSADKNWAYKYLLGLIKSSPTFLPTEDSDFLMSLDLESRDQAWSPKTCDIVIEGSQSPTSPASSSPKPGSKAGSQEAEVGSDGERVAQTPDSSDGGLSPSGEDEDEDQLMYRLSYQVQGPRPVLGGSFLGPPLPGASIQLPSCLVLNSLQQELQKDKEAMALANSVQGCLIRKCLFRDGKGGVFVCSHGRAKMEGNIFRNLTYAVRCIHNSKIIMLRNDIYRCRASGIFLRLEGGGLIAGNNIYHNAEAGVDIRKKSNPLILCNQIHHGLRSGIVVLGNGKGIIRNNQIFSNKEAGIYILYHGNPVVSGNHIFKGRAAGIAVNENGKGLITENVIRENQWGGVDIRRGGIPVLRSNLICFGYSDGVVVGDEGKGLIEGNTIYANKGCGVWMMSSSLPHVTSNHVSYNGLYGVAVFSQKDGSSELPRGHRAQENFSEDGDAILWETELEKEDDPLRRPITIALVESNSINHNGASGLYVQSSEALHVITNVIHANGDRGITVAQSSQPTRVANNSISCNRQSGVKVEAQCKVELRGNGIYDNRGHGIITKGDSTIVIENDIIGNRGSGLQLLPRSDTKVIKNRIHSFRAYGIAVRGRAKALVQENIIFQGKTSKTIFQQISNNRECIMQNNKFLVFKKKSDTWRLVNPPARPHLENSLRRPSAAHNGQKVTAMATRITARVEGGYHSNRSVFCTIL
binds	RPGR (protein, UniProt Q92834 1-1020) MREPEELMPDSGAVFTFGKSKFAENNPGKFWFKNDVPVHLSCGDEHSAVVTGNNKLYMFGSNNWGQLGLGSKSAISKPTCVKALKPEKVKLAACGRNHTLVSTEGGNVYATGGNNEGQLGLGDTEERNTFHVISFFTSEHKIKQLSAGSNTSAALTEDGRLFMWGDNSEGQIGLKNVSNVCVPQQVTIGKPVSWISCGYYHSAFVTTDGELYVFGEPENGKLGLPNQLLGNHRTPQLVSEIPEKVIQVACGGEHTVVLTENAVYTFGLGQFGQLGLGTFLFETSEPKVIENIRDQTISYISCGENHTALITDIGLMYTFGDGRHGKLGLGLENFTNHFIPTLCSNFLRFIVKLVACGGCHMVVFAAPHRGVAKEIEFDEINDTCLSVATFLPYSSLTSGNVLQRTLSARMRRRERERSPDSFSMRRTLPPIEGTLGLSACFLPNSVFPRCSERNLQESVLSEQDLMQPEEPDYLLDEMTKEAEIDNSSTVESLGETTDILNMTHIMSLNSNEKSLKLSPVQKQKKQQTIGELTQDTALTENDDSDEYEEMSEMKEGKACKQHVSQGIFMTQPATTIEAFSDEEVGNDTGQVGPQADTDGEGLQKEVYRHENNNGVDQLDAKEIEKESDGGHSQKESEAEEIDSEKETKLAEIAGMKDLREREKSTKKMSPFFGNLPDRGMNTESEENKDFVKKRESCKQDVIFDSERESVEKPDSYMEGASESQQGIADGFQQPEAIEFSSGEKEDDEVETDQNIRYGRKLIEQGNEKETKPIISKSMAKYDFKCDRLSEIPEEKEGAEDSKGNGIEEQEVEANEENVKVHGGRKEKTEILSDDLTDKAEDHEFSKTEELKLEDVDEEINAENVESKKKTVGDDESVPTGYHSKTEGAERTNDDSSAETIEKKEKANLEERAICEYNENPKGYMLDDADSSSLEILENSETTPSKDMKKTKKIFLFKRVPSINQKIVKNNNEPLPEIKSIGDQIILKSDNKDADQNHMSQNHQNIPPTNTERRSKSCTIL
binds	Lamin B2 (protein, UniProt Q03252 1-620) MSPPSPGRRREQRRPRAAATMATPLPGRAGGPATPLSPTRLSRLQEKEELRELNDRLAHYIDRVRALELENDRLLLKISEKEEVTTREVSGIKALYESELADARRVLDETARERARLQIEIGKLRAELDEVNKSAKKREGELTVAQGRVKDLESLFHRSEVELAAALSDKRGLESDVAELRAQLAKAEDGHAVAKKQLEKETLMRVDLENRCQSLQEELDFRKSVFEEEVRETRRRHERRLVEVDSSRQQEYDFKMAQALEELRSQHDEQVRLYKLELEQTYQAKLDSAKLSSDQNDKAASAAREELKEARMRLESLSYQLSGLQKQASAAEDRIRELEEAMAGERDKFRKMLDAKEQEMTEMRDVMQQQLAEYQELLDVKLALDMEINAYRKLLEGEEERLKLSPSPSSRVTVSRATSSSSGSLSATGRLGRSKRKRLEVEEPLGSGPSVLGTGTGGSGGFHLAQQASASGSVSIEEIDLEGKFVQLKNNSDKDQSLGNWRIKRQVLEGEEIAYKFTPKYILRAGQMVTVWAAGAGVAHSPPSTLVWKGQSSWGTGESFRTVLVNADGEEVAMRTVKKSSVMRENENGEEEEEEAEFGEEDLFHQQGDPRTTSRGCYVM
